Values from PubChem BioAssay AID1224826 (NIAID, 2016).

Test: 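Regulators of Tlr4 signalling leading to Tnf-alpha expression in macrophages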 (primary screen)
Cells: RAW264.7 G9 macrophages from mouse bearing reporters for p65 (GFP) and the Tnf promoter (mCherry)
Reagent: siRNA pool against mouse genes, 100 nM
Duration: 16 h of LPS stimulation, after 2 days of siRNA transfection
Treatment: bacterial lipopolysaccharide (Salmonella minnesota R595), 10 ng/ml
Measurement: 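Nuclear mCherry signal of the Tnf promoter reporter measured by imaging after background removal, scaled to each plate median and turned into robust z-scores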
Direction: Tnf reporter robust z-score: higher = stronger Tnf promoter reporter signal after LPS; Tnf reporter intensity: higher = stronger Tnf promoter reporter signal
Active means: 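Called active when robust z-score is at most -1.3, matching the median of the Tlr4 knock-down control, or over 3; control wells and wells with under 50 cells never active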
Calls: active = Tnf reporter clearly lowered or raised; inactive = no clear change in Tnf reporter
The deposit covers about 17,000 reagents; this is an unselected part. About 1,110 of them (6.6%) count as active. 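Active means lowered or raised reporter signal; replicate intensities are raw and not normalised per plate.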 A number with no mark means an inactive call.

| gene | Tnf reporter robust z-score | fewer than 50 cells in well | Tnf reporter intensity, replicate 1 | Tnf reporter intensity, replicate 2 |
| --- | --- | --- | --- | --- |
| Astn2 | -1.06 | enough cells in well | 118 | 98.1 |
| Rmnd5b | -0.29 | enough cells in well | 216 | 75.3 |
| Etfb | -0.51 | enough cells in well | 165 | 217 |
| Tmem229b | 0.54 | enough cells in well | 203 | 179 |
| Mis12 | – | fewer than 50 cells per well; well left out of calls | 188 | 57.1 |
| Pla2g2d | -0.08 | enough cells in well | 265 | 165 |
| Serac1 | 0.2 | enough cells in well | 110 | 105 |
| Mab21l3 | -0.25 | enough cells in well | 194 | 184 |
| Tle4 | 0.44 | enough cells in well | 234 | 175 |
| Dbnl | -1.44 (active) | enough cells in well | 98.9 | 140 |
| Cer1 | 0.6 | enough cells in well | 217 | 186 |
| Ilf3 | -0.08 | enough cells in well | 196 | 173 |
| Crygb | -0.1 | enough cells in well | 239 | 184 |
| Plp2 | -0.41 | enough cells in well | 91.8 | 132 |
| Echdc2 | – | fewer than 50 cells per well; well left out of calls | 43.6 | 101 |
| Pdia2 | 0.07 | enough cells in well | 273 | 166 |
| Asb8 | -0.59 | enough cells in well | 158 | 112 |
| Opa1 | 0.23 | enough cells in well | 257 | 199 |
| Msc | 0.67 | enough cells in well | 298 | 273 |
| Gpr55 | -0.46 | enough cells in well | 185 | 243 |
| Pgk1 | -0.13 | enough cells in well | 152 | 188 |
| Nup133 | -0.99 | enough cells in well | 135 | 92.2 |
| Tectb | 1.05 | enough cells in well | 140 | 142 |
| Map2k4 | 0.96 | enough cells in well | 252 | 113 |
| Tle3 | 0.66 | enough cells in well | 266 | 176 |
| Pou2f3 | -0.25 | enough cells in well | 219 | 181 |
| Zc2hc1a | 0.89 | enough cells in well | 223 | 67.4 |
| Or5b95 | 1.08 | enough cells in well | 271 | 147 |
| Mrgpra6 | 1.41 | enough cells in well | 336 | 155 |
| Rpl5 | -1.85 (active) | enough cells in well | 148 | 55.3 |
| Hspa5 | 0.36 | enough cells in well | 278 | 201 |
| Col6a1 | -0.19 | enough cells in well | 202 | 221 |
| Il22ra1 | -0.07 | enough cells in well | 196 | 174 |
| Gabra2 | -0.09 | enough cells in well | 248 | 228 |
| Adcy8 | 1.02 | enough cells in well | 327 | 204 |
| Kcnj16 | 0.18 | enough cells in well | 201 | 142 |
| Arhgef39 | -0.55 | enough cells in well | 179 | 178 |
| Cdk9 | – | fewer than 50 cells per well; well left out of calls | 97.1 | 48.4 |
| Ino80c | 0.69 | enough cells in well | 249 | 195 |
| Anks1 | -1.54 (active) | enough cells in well | 68.8 | 120 |

Copied from the entries so far (6 entries):
| gene | Tnf reporter robust z-score | fewer than 50 cells in well | Tnf reporter intensity, replicate 1 | Tnf reporter intensity, replicate 2 |
| --- | --- | --- | --- | --- |
| Tectb | 1.05 | enough cells in well | 140 | 142 |
| Map2k4 | 0.96 | enough cells in well | 252 | 113 |
| Tle3 | 0.66 | enough cells in well | 266 | 176 |
| Pou2f3 | -0.25 | enough cells in well | 219 | 181 |
| Zc2hc1a | 0.89 | enough cells in well | 223 | 67.4 |
| Or5b95 | 1.08 | enough cells in well | 271 | 147 |
